The values below come from publication PMC3372421.

Sequences of proteins named here, by UniProt entry; tags and fusion partners are left off.
UniProt Q7Z434: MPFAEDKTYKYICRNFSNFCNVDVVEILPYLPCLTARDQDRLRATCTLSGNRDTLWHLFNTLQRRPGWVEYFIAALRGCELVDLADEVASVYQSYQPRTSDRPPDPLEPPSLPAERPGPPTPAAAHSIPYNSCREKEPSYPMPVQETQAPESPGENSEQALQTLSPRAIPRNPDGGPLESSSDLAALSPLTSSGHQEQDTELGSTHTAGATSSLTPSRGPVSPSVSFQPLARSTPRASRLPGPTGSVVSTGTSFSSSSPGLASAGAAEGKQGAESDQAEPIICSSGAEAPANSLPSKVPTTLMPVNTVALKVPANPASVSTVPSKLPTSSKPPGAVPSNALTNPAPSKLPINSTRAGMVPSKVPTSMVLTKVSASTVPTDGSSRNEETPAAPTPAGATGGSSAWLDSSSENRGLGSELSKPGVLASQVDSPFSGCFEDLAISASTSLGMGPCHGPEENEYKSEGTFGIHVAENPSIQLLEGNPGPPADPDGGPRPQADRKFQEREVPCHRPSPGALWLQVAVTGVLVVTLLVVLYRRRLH
UniProt Q14258: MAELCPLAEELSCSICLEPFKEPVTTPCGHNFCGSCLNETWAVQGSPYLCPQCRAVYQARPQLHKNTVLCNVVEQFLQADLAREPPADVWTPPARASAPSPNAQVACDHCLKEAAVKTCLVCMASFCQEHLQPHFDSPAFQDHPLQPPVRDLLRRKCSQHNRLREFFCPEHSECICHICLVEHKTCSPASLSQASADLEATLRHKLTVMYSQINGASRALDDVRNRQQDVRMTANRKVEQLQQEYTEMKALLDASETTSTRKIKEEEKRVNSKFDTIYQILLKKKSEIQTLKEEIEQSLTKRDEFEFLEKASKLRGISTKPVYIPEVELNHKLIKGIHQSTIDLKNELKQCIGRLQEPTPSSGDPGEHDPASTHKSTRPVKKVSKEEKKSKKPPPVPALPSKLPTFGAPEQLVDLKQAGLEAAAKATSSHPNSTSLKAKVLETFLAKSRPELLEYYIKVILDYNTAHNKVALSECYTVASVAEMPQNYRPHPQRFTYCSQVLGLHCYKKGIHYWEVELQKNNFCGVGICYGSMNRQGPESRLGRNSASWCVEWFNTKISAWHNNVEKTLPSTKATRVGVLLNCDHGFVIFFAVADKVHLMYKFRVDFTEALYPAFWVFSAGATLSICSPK

In the assay the target is mitochondrial antiviral signaling adaptor MAVS (human (endogenous in HEK293T)) (UniProt Q7Z434). Briefly: co-IP; endogenous MAVS immunoprecipitated with anti-MAVS (2.5 μg/ml) and protein G-magnetic beads from HEK293T cell extracts in lysis buffer-B (50 mM Tris-HCl pH 7.5, 140 mM NaCl, 5 mM EDTA, 5% glycerol, 1% Triton X-100, 1% Nonidet P-40); cells infected or not with SeV H4 in the presence of MG132 for 6 hr; immunoblot for TRIM25. (In western blotting, separated proteins are transferred to a membrane and probed.)

These are yes or no findings as the source states them, for the method shown. Binding seen in cells or lysates may run through a third protein. Some results given as binding are weak or reduced against the parent protein; the word gives no strength.

Consider “E3 ubiquitin ligase TRIM25 (from UniProt Q14258 1-630)”, for which the binding entry is on record as “binds”.
